Reference: paper PMC5675994
These are yes or no findings as the source states them, for the method shown. Binding seen in cells or lysates may run through a third protein. Here binding means that the protein was enriched with, or labelled near, the bait; the list need not be complete. For part of these data: Tags and fused reporters may be left off the sequences shown. One block for each binder: values may come before it.

Chains of the proteins cited; added tags and fusions are not shown. Lines headed by an entry give the natural chain unless they say otherwise; changes in a name come on top.
UniProt Q07540: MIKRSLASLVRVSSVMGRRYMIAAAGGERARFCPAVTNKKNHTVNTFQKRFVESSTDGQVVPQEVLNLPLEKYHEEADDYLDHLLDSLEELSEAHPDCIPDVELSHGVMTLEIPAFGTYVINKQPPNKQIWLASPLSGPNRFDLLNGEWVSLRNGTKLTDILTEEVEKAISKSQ

Legend:
[1] = biological target: T1, Nfs1-His6 (S. cerevisiae) (UniProt P25374); assay: affinity purification with mass spectrometry; Nfs1-His6 held on Ni-NTA superflow agarose from sonicated, cleared lysate of isolated mitochondria of the Gal-Nfs1-His6 yeast strain; 50 mM TrisCl pH 7.5, 80 mM KCl, 10% glycerol, wash 40 mM imidazole, elution 400 mM imidazole; eluate analysed by LC-MS/MS
T1 sequence: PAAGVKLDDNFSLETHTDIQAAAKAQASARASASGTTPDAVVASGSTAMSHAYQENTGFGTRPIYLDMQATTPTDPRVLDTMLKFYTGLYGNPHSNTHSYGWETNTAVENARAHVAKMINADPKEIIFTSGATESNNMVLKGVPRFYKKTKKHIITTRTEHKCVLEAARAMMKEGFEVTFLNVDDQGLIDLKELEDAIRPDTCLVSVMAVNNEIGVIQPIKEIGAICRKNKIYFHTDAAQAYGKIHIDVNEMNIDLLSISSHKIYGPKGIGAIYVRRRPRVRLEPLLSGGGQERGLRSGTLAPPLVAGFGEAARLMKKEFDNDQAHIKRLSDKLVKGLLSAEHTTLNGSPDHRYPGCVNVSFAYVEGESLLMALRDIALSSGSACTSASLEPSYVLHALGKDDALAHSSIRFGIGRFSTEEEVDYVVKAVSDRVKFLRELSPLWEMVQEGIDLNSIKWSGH

[2] = biological target: Yfh1-His6 (S. cerevisiae) (UniProt Q07540); assay: affinity purification with mass spectrometry; Yfh1-His6 held on Ni-NTA superflow agarose from French-press lysate (108,000xg supernatant) of isolated mitochondria of the Yfh1-His6 yeast strain; 50 mM TrisCl pH 7.5, 80 mM KCl, 10% glycerol, wash 40 mM imidazole with 0.1% Triton X-100, elution 400 mM imidazole; eluate analysed by LC-MS/MS

binding [1]: binds
binding [2]: binds
B1: Clustered mitochondria protein 1 (protein, UniProt Q03690 1-1277)
chain: MSEKKEEVKNATVKVTVKLPKEDNHSHNTKHLKKTQSSKNNDISFEIGKESKIQTVLDVLAMIPSSKYLTNVGLKTIEGDSQLSDEMSIKEIVGEKSELKLQLILKPYSAREALKHVITVRDFIGFAQETSDGLSEFAISTGSSFSSLPLGPIKERSKQEEKDEKSDPEEKKNTFKDVTDEEKLKFNEMVHEVFSSFKNSSINKLLTSESNIITPCVRSLSFAPYNPVPPFYRSKGHLFYLQIVTLEGESFYITAIPSGFYVNKSNSTKFDPSPKENTDENAHSSLIYYSLFDLIASRSKKFISHVQAFEKKLSALDSTSYVRPSNTFLHKPWFVSSLPPNNPDYLRLQTAALDTTPERNFNDEFQAIKDLTTSTLQDRIEMERLFSKVVHEFSVTAASGAMSIFYSDFVAMNPESPTRDQIFLKDNIFYSYVSDVSGNYEGKGGDEAAIAASNQDLKTINILNRLHMHEVRYLLTTVVEFAGRRILAQTPVPGLLATMGNKIVKDANTGEEVTEDFVNDINVKYGLDEGLGKIVYDADFDSVLEKKFVKAFHLKKHKVNGTELAFSSQSKGIVGFDKRRYILDLANTYPLDINFARQNFDNIEETGNRYPHRQTLLRPELVEKWWNNKVEKEGVEFEKAYEENLFSYNPDAYQVEGIEDANVDEMSNYLQKEVIPSVIQDYLSGNLSTPYNGEHLADTLHKNGINMRYLGKIIELSQKELDSQIVHYEQNLKAVEQDNKEYEDWEKSYLQKIENMIKERQAKINKLVQEGKEVPKELTEDLKLNDEEIKKPTDGKPVVVAYDELVPLIKISELEIVSRSLKHVLKDLSKDVPVFLVPSLVAYVFNMLVGINYNADPKPEPVDEFYPVNKCSFAKLTRSELLEAVSKQAFLRFRHQLPSNWIEAYMENPFTLIRSVSYKFGIQLLNKEYFFTREQLESYKQSLDKKIRNKFVEPPTTFSLSDLTIIPRVKFSEYTSSVSEEFWAQGASMINEDKQSALTLLAQSITVLEDVNNILHPAVAEKYLSLSAIYNKLALYPEAIAFCRKACTIYERVSGIDSFEMMRALTNLAILEFSNESPYNATVVYNRLAEILKVYELPKIHHPAPTSIFNHLEQLALGVQDTKLAIEVLGQLSSYVVELEGKDSLAYGYTESRLGNLFAALKDFHRALEHITVTQGIFTKQLGMNHTHSAQSRQWVNGLSSLIMDLKQKKQLAQDQMSTTGSNSAGHKKTNHRQKKDDVKPELANKSVDELLTFIEGDSSNSKSKNKTNNKKKHGKK

binding [1]: binds
binding [2]: binds
B2: Acetolactate synthase small subunit, mitochondrial (protein, UniProt P25605 25-309)
chain: SSSSTSALAYKQMHRHATRPPLPTLDTPSWNANSAVSSIIYETPAPSRQPRKQHVLNCLVQNEPGVLSRVSGTLAARGFNIDSLVVCNTEVKDLSRMTIVLQGQDGVVEQARRQIEDLVPVYAVLDYTNSEIIKRELVMARISLLGTEYFEDLLLHHHTSTNAGAADSQELVAEIREKQFHPANLPASEVLRLKHEHLNDITNLTNNFGGRVVDISETSCIVELSAKPTRISAFLKLVEPFGVLECARSGMMALPRTPLKTSTEEAADEDEKISEIVDISQLPPG

binding [1]: binds
binding [2]: binds
B3: Aconitate hydratase, mitochondrial (protein, UniProt P19414 17-778)
chain: ATVSNLTRDSKVNQNLLEDHSFINYKQNVETLDIVRKRLNRPFTYAEKILYGHLDDPHGQDIQRGVSYLKLRPDRVACQDATAQMAILQFMSAGLPQVAKPVTVHCDHLIQAQVGGEKDLKRAIDLNKEVYDFLASATAKYNMGFWKPGSGIIHQIVLENYAFPGALIIGTDSHTPNAGGLGQLAIGVGGADAVDVMAGRPWELKAPKILGVKLTGKMNGWTSPKDIILKLAGITTVKGGTGKIVEYFGDGVDTFSATGMGTICNMGAEIGATTSVFPFNKSMIEYLEATGRGKIADFAKLYHKDLLSADKDAEYDEVVEIDLNTLEPYINGPFTPDLATPVSKMKEVAVANNWPLDVRVGLIGSCTNSSYEDMSRSASIVKDAAAHGLKSKTIFTVTPGSEQIRATIERDGQLETFKEFGGIVLANACGPCIGQWDRRDIKKGDKNTIVSSYNRNFTSRNDGNPQTHAFVASPELVTAFAIAGDLRFNPLTDKLKDKDGNEFMLKPPHGDGLPQRGYDAGENTYQAPPADRSTVEVKVSPTSDRLQLLKPFKPWDGKDAKDMPILIKAVGKTTTDHISMAGPWLKYRGHLENISNNYMIGAINAENKKANCVKNVYTGEYKGVPDTARDYRDQGIKWVVIGDENFGEGSSREHAALEPRFLGGFAIITKSFARIHETNLKKQGLLPLNFKNPADYDKINPDDRIDILGLAELAPGKPVTMRVHPKNGKPWDAVLTHTFNDEQIEWFKYGSALNKIKADEKK
